The text below walks through data of PubChem BioAssay AID330 (DTP/NCI, 2004).

Structures are written as SMILES. The list shows only some results of the screen, not a fair sample: it gathers tests that were run many times, whatever their T/C, doses with no T/C, and many T/C values between a quarter and a half above the control. Other doses and runs of a compound stand elsewhere. T/C: endpoint of the treated group in % of that of the vehicle group. Some doses have a count of surviving animals in place of a T/C: the source files T/C as zero there, which appears to mark a toxic dose or a test without result, not a measured value. Some doses without a T/C left all or most animals alive at the check, yet need not have been tolerated: the source hardly ever lists a survival T/C far under the control, and the zero likely stands for such cases as well. Counts of survivors are from the toxicity check (mostly the fifth day) where no day follows; animals may have died later. Schedule codes are those of the source, taken here to give the interval after Q, in days (D) or hours (H), and the number of doses after X. Some molecules as drawn cover several salts, stereoisomers or complexes of the source; a dose is that of the sample tested. Where survival is the endpoint, the PubChem record calls one and a half times the control and up active, and a quarter to a half above the control has no call in these data; cut-offs in other NCI protocols can differ. Some entries were tested several times; their values stand side by side, smallest first. Some T/C values are followed by the survivors on the day toxicity was checked, most often the fifth; where none is given, no animal had died by that day.

In the assay the test system is P388 leukemia ip, CD2F1 mice, survival T/C. The experiment in a line: NCI In Vivo Anticancer Drug Screen. Data for tumor model P388 Leukemia (intraperitoneal) in CD2F1 (CDF1) mice. Particulars: T/C endpoint: median survival time, higher T/C = longer survival.
The mark [1] stands for this setting: dose: 25.0 mg/kg/injection, schedule: Q01DX009 (ip), vehicle: saline.
[2] abbreviates: dose: 20.0 mg/kg/injection, schedule: Q01DX009 (ip), vehicle: other.
The mark [3] stands for this setting: dose: 100.0 mg/kg/injection, schedule: Q01DX009 (ip), vehicle: saline with Tween-80.
The mark [4] stands for this setting: dose: 200.0 mg/kg/injection, schedule: Q01DX009 (ip), vehicle: saline with Tween-80.
Where [5] appears, read: dose: 200.0 mg/kg/injection, schedule: Q01DX005 (ip), vehicle: saline with Tween-80.
[6] abbreviates: dose: 50.0 mg/kg/injection, schedule: Q01DX009 (ip), vehicle: saline with Tween-80.
Setting [7] is: dose: 200.0 mg/kg/injection, schedule: Q01DX005 (ip), vehicle: Klucel (hydroxypropylcellulose) (HPC).

In the case of `Nc1ncnc2c1ncn2C1OC(COP(=O)(O)O)C(O)C1O` (centres undefined), the survivor count is given as 6 of 6 under setting [1] and 8 of 10 (dose: 400.0 mg/kg/injection, schedule: Q01DX009 (oral), vehicle: water). In addition, the T/C was 130 % of control (dose: 37.5 mg/kg/injection, schedule: Q03HX016 (ip), vehicle: saline); 130 % of control (dose: 37.5 mg/kg/injection, schedule: Q03HX024 (ip), vehicle: saline); 146 % of control (dose: 50.0 mg/kg/injection, schedule: Q03HX016 (ip), vehicle: water); 144 % of control (dose: 50.0 mg/kg/injection, schedule: Q03HX024 (ip), vehicle: water); 132 % of control (dose: 100.0 mg/kg/injection, schedule: Q01DX009 (ip), vehicle: water); 126 % of control (dose: 150.0 mg/kg/injection, schedule: Q03HX024 (ip), vehicle: water). Further, the T/C by setting is: (dose: 160.0 mg/kg/injection, schedule: Q01DX009 (ip), vehicle: water) 127 % of control; (dose: 200.0 mg/kg/injection, schedule: Q01DX005 (ip), vehicle: water) 131 % of control; (dose: 200.0 mg/kg/injection, schedule: Q01DX009 (ip), vehicle: water) 149 % of control; (dose: 250.0 mg/kg/injection, schedule: Q03HX024 (ip), vehicle: water) 133 % of control; (dose: 320.0 mg/kg/injection, schedule: Q01DX009 (ip), vehicle: water) 125 and 133 % of control; (dose: 400.0 mg/kg/injection, schedule: Q01DX005 (ip), vehicle: water) 137 % of control. In addition, the T/C is, setting by setting: (dose: 400.0 mg/kg/injection, schedule: Q03HX009 (ip), vehicle: water) 149 % of control; (dose: 640.0 mg/kg/injection, schedule: Q01DX009 (ip), vehicle: water) 142 % of control; (dose: 800.0 mg/kg/injection, schedule: Q03HX024 (ip), vehicle: water) 138 % of control; (dose: 800.0 mg/kg/injection, schedule: Q04DX003 (ip), vehicle: water) 128 % of control; (dose: 1600.0 mg/kg/injection, schedule: Q04DX003 (ip), vehicle: water) 130 % of control; (dose: 1600.0 mg/kg/injection, schedule: Q08DX002 (ip), vehicle: water) 132 % of control.
As for `COc1cccc2c(NCCCNCCCNc3c4ccccc4nc4c(OC)cccc34)c3ccccc3nc12`, the T/C is 130 % of control (dose: 1.25 mg/kg/injection, schedule: Q01DX009 (ip), vehicle: other); 131 and 135 % of control (dose: 2.5 mg/kg/injection, schedule: Q01DX009 (ip), vehicle: other); 141 % of control (dose: 5.0 mg/kg/injection, schedule: Q01DX009 (ip), vehicle: other); 139 % of control (dose: 10.0 mg/kg/injection, schedule: Q01DX009 (ip), vehicle: other); 149 % of control [5 of 6 alive] under setting [2]. Besides, the survivor count under setting [2] is 5 of 6 and the survivor count (dose: 40.0 mg/kg/injection, schedule: Q01DX009 (ip), vehicle: other) was 0 of 6.
Consider `COc1cc(C(=O)N/N=C/c2cccc([N+](=O)[O-])c2)cc(OC)c1OC`, for which the T/C is 125 % of control under setting [3] and 133 % of control under setting [4].
In the case of `Nc1nc2c(nnn2C2OC(CO)C(O)C2O)c(=O)[nH]1` (centres undefined), under setting [5], the survivor count is 0 of 6.
Turning to `CSc1ncc(Br)c(Sc2nc(N)nc3nc[nH]c23)n1`, the T/C is, setting by setting: (dose: 3.0 mg/kg/injection, schedule: Q01DX009 (ip), vehicle: saline with Tween-80) 140 % of control; (dose: 6.25 mg/kg/injection, schedule: Q01DX009 (ip), vehicle: saline with Tween-80) 140 % of control. Further, the survivor count under setting [6] was 6 of 6.
As for `CCN(CC)c1nc(N)nc(N)n1`, the survivor count by setting is: (dose: 50.0 mg/kg/injection, schedule: Q01DX009 (ip), vehicle: saline) 6 of 6; under setting [3], 3 of 6.
For the compound `C1CNC(N2CCN(C3=NCCN3)CC2)=N1`, under setting [7], the survivor count was 1 of 5.
`COC1=CCC2=C(CCN(C)C2Cc2ccc(OC)cc2)C1` (centres undefined): the survivor count by setting is: (dose: 100.0 mg/kg/injection, schedule: Q01DX005 (ip), vehicle: Klucel (hydroxypropylcellulose) (HPC)) 1 of 5; under setting [7], 0 of 6.
On to `CCCCCCCCP(=O)(N1CC1C)N1CC1C` (centres undefined), for which the survivor count by setting is: (dose: 25.0 mg/kg/injection, schedule: Q01DX009 (ip), vehicle: saline with Tween-80) 1 of 6; under setting [6], 0 of 6; (dose: 100.0 mg/kg/injection, schedule: Q04DX003 (ip), vehicle: saline) 6 of 6; (dose: 200.0 mg/kg/injection, schedule: Q04DX003 (ip), vehicle: saline) 0 of 6.
Regarding `O=C1C=CC2(C=C1)CCN=C(c1cc3c(cc1Br)OCO3)O2`, the survivor count by setting is: (dose: 200.0 mg/kg/injection, schedule: Q04DX002 (ip), vehicle: saline with Tween-80) 1 of 6; (dose: 400.0 mg/kg/injection, schedule: Q04DX002 (ip), vehicle: saline with Tween-80) 0 of 6.
For `O=C1OCCN1/N=C\c1ccccc1`, the survivor count (dose: 400.0 mg/kg/injection, schedule: Q01DX009 (ip), vehicle: saline) was 5 of 6.
As for `CN(C)N=Nc1cn[nH]c1C(N)=O`, the T/C was 127 % of control (dose: 100.0 mg/kg/injection, schedule: Q04DX003 (ip), vehicle: Klucel (hydroxypropylcellulose) (HPC)) and 135 % of control (dose: 200.0 mg/kg/injection, schedule: Q04DX003 (ip), vehicle: Klucel (hydroxypropylcellulose) (HPC)).
`CC(=O)NC1=NN(C(C)=O)C(c2ccccc2)S1=O` (centres undefined): under setting [5], the survivor count is 3 of 6.
`Cc1ccc(S(=O)(=O)C2(NC(=O)C3CC3)CC2)cc1`: the survivor count (dose: 240.0 mg/kg/injection, schedule: Q01DX005 (ip), vehicle: Klucel (hydroxypropylcellulose) (HPC)) is 6 of 6.
`CC1=CC2c3cccc4[nH]cc(c34)CC2N(C)C1` (centres undefined): under “dose: 5.0 mg/kg/injection, schedule: Q01DX009 (ip), vehicle: saline”, the T/C was 141 % of control.
As for `Cc1cc(/C=C\c2ccc3ccccc3[n+]2C)c(O)c2ncccc12`, the survivor count under setting [6] is 2 of 6.
Consider `CCCCC1SC2=NCCN2C1(O)c1ccc(Cl)cc1` (centres undefined), for which the survivor count under setting [7] was 0 of 6.
In the case of `C=CCSc1cccc2ccccc12`, under setting [4], the survivor count is on record as 3 of 6.
Regarding `CC1=CC(=O)[C@@H](O)[C@]2(C)[C@H]3[C@@]4(O)OC[C@]35[C@H]([C@@H](C)[C@H]4O)[C@@H](OC(=O)CC(C)C)C(=O)O[C@@H]5C[C@@H]12`, the T/C (dose: 1.0 mg/kg/injection, schedule: Q01DX005 (ip), vehicle: saline + alcohol) is 126 % of control; the T/C (dose: 2.0 mg/kg/injection, schedule: Q01DX005 (ip), vehicle: saline + alcohol) was 130 [5 of 6 alive] and 140 % of control [5 of 6 alive]. Further, the survivor count (dose: 4.0 mg/kg/injection, schedule: Q01DX005 (ip), vehicle: saline + alcohol) is on record as 0 of 6 and the survivor count (dose: 8.0 mg/kg/injection, schedule: Q01DX005 (ip), vehicle: saline + alcohol) was 0 of 6.
As for `CCCCCCCCCCCCCCCC[As](CCCCCCCCCCCCCCCC)SC1OC(COC(C)=O)C(OC(C)=O)C(OC(C)=O)C1OC(C)=O` (centres undefined), the T/C under setting [6] is 125 % of control. The survivor count under setting [3] was 3 of 6 and the survivor count under setting [4] is reported as 0 of 6.
Take `CC1N(C)c2cc3[nH]c(=O)cc(C(F)(F)F)c3cc2C1(C)C` (centres undefined): the survivor count (dose: 400.0 mg/kg/injection, schedule: Q01DX001 (ip), vehicle: Klucel (hydroxypropylcellulose) (HPC)) was 6 of 6.
In the case of `CCN(CC)CCCC(C)Nc1cc(OC)c2nc(C)ccc2c1OC` (centres undefined), the survivor count is, setting by setting: (dose: 0.78 mg/kg/injection, schedule: Q01DX009 (ip), vehicle: saline) 5 of 6; (dose: 6.25 mg/kg/injection, schedule: Q01DX009 (ip), vehicle: saline) 3 of 6; (dose: 12.5 mg/kg/injection, schedule: Q01DX009 (ip), vehicle: saline) 0 of 6; under setting [1], 0 of 6; under setting [6], 0 of 6; under setting [3], 0 of 6. Also, under setting [4], the survivor count was 0 of 6.
As to `c1ccc2c[n+](CC[n+]3ccc4ccccc4c3)ccc2c1`, the survivor count under setting [3] is 6 of 6.
